Experimental data published in PubChem BioAssay AID504389 (National Center for Advancing Translational Sciences (NCATS), 2011).
Inconclusive means that the source gave no clear call. Such entries were picked first, then a sample of the others. Where the call is inconclusive, the potency comes from a doubtful curve fit. Activity calls are given as the source filed them. The call rests on the fitted dose curve; in most records, active means well fitted curve in the direction sought with a large enough effect; inconclusive means small, poorly fitted or top-dose-only effect, or effect the other way, or another doubt; inactive means no such curve, though single readings can be large or run the other way.

The chains behind the UniProt entries cited, without tags or fusion partners.
UniProt P16473, whole entry, looked up: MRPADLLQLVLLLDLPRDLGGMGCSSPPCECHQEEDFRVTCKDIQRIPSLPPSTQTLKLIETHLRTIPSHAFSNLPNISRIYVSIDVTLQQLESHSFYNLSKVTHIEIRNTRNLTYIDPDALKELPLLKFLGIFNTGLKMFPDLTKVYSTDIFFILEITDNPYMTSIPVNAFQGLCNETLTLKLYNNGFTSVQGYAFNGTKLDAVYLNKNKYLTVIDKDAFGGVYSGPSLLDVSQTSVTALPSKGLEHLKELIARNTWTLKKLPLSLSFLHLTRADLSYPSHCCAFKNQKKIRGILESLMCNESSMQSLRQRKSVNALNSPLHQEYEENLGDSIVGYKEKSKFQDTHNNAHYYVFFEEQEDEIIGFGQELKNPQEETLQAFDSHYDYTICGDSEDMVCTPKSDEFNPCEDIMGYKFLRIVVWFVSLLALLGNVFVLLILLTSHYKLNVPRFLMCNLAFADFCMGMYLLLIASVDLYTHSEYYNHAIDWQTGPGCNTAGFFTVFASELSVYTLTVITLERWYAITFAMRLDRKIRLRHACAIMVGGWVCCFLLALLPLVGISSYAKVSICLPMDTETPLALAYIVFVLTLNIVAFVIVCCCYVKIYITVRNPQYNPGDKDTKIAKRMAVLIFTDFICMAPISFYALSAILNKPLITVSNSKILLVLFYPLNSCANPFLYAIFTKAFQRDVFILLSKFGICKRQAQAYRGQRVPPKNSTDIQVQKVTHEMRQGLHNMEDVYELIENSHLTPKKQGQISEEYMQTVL

What follows are compounds tested against Thyrotropin receptor (Homo sapiens) (UniProt P16473) (assay: qHTS Assay for Antagonists of the Thyroid Stimulating Hormone Receptor: SAR for Probe). Conditions: HEK293-TSHR, TSH-stimulated cAMP HTRF, 2 h; series mostly up to 57.5 µM; activity change, negative = inhibition: at the top concentration.
Text: TSH is an alpha/beta heterodimeric glycoprotein hormone secreted from the anterior pituitary gland which belongs to the glycoprotein hormone family. The actions of TSH are mediated by a seven-transmembrane receptor, which upon TSH binding couples preferentially to the G-alpha (s) protein (Gs), resulting in activation of adenylate cyclase and increase in cyclic adenosine 3', 5' monophosphate (cAMP). The TSH receptor (THSR) is mainly expressed in thyroid follicular cells and regulates their growth and function. This cell based assay was conducted on a TSHR transfected HEK 293 cell line, measuring cAMP stimulation using antibody-based Homogeneous Time Resolved Fluorescence (HTRF). Our goal is to identify small molecules that will inhibit (antagonize) the thyroid-stimulating hormone receptor (TSHR), a member of the 7 transmembrane-spanning receptor (7TMR) family of cell surface receptors. TSHR-mediated hyperthyroidism is important in thyroid pathology. The development of small molecule antagonists of TSHR may lead to therapeutic approaches for TSHR-mediated hyperthyroidism caused by constitutively activating mutations or stimulating auto-antibodies associated with Graves' disease. Graves' disease is the leading cause of hyperthyroidism and is caused by autoantibodies that stimulate TSHR (TsAbs) causing thyroid growth and unregulated overproduction of thyroid hormones and existing treatments have liabilities (agranulocytosis). In addition, TSHRs are known to be expressed in multiple extrathyroidal tissues including bone, brain, kidney, testis, fat and cells of the immune system but the role of the TSHR in these tissues is not clear. Therefore, TSHR antagonists/inverse agonists could be used as probes of extrathyroidal TSHR function. Finally, TSHR inverse agonists, which are a subclass of antagonists that inhibit agonist-independent (or basal or constitutive) TSHR signaling, could be used to inhibit TSH-independent signaling in patients with recurrent or metastatic thyroid cancer who are receiving thyroid hormone to suppress TSH. The present assay presents confirmation data for analogues of series of interest in the primary screening assay.
An anti cAMP antibody contains a fluorescent cryptate tag (excitation 337 nm; emission 620 nm) and the acceptor is cAMP-d2 (excitation 620 nm; emission 665 nm). When antibody and cAMP-d2 interact and are excited by a 337 nm light, a FRET occurs resulting in emission at 665 nm. The assay is competition between cAMP-d2 and cAMP (from the cell lysate). The homogeneous protocol allows for one step dispense after stimulation that is automation friendly. Step, Parameter, Value, Description 1, Cells, 3 uL, 2000 TSHR freshly harvested cells/well 1536 TC treated White solid bottom plate (Cells resuspended in 10 mM HEPES buffered HBSS and 70 uM RO 20-1724) 2, Compound, 23 nL, Libraries and controls 3, Compound, 1 uL, EC80 TSH (4 nM final) 4, Time, 2 hours, 37C 5, Reagent, 2 uL, cAMP antibody diluted 1:20 in lysis buffer 6, Time, 30 minutes, Room temperature 7, Detector, HTRF settings, Viewlux

Potency, inconclusive:
COc1ccc(C2Nc3ccccc3C(=O)N2Cc2cccc(Cl)c2)cc1COc1ccc(NC(C)=O)cc1 (stereo not given) 3.16 µM [activator, full curve, poor fit], COc1ccc(C2Nc3ccccc3C(=O)N2Cc2ccccc2Cl)cc1COc1ccc(NC(C)=O)cc1 (stereo not given) 3.55 µM [activator, full curve, poor fit], COc1ccc(C(=O)N(Cc2ccco2)Cc2ccco2)c(O)c1 44.7 µM [activator, partial curve, poor fit], COc1ccc(C2Nc3ccccc3C(=O)N2CC(C)(C)C)cc1COc1ccc(NC(C)=O)cc1 (stereo not given) 2.82 µM [activator, full curve, poor fit], COc1ccc(C2Nc3ccccc3C(=O)N2Cc2ccccc2)cc1COc1cccc(C(F)(F)F)c1 (stereo not given) 17.8 µM [inhibitor, partial curve], COc1ccc(C2Cc3ccccc3C(=O)N2Cc2ccccc2)cc1COc1ccc(NC(C)=O)cc1 (stereo not given) 2 µM [activator, full curve, poor fit], O=C(c1ccccc1O)N(Cc1ccco1)Cc1cccs1 7.94 µM [activator, partial curve], COc1ccc(C2Nc3ccccc3C(=O)N2Cc2ccco2)cc1CSc1c(C)cccc1C (stereo not given) 91.9 µM [inhibitor, partial curve], COc1ccc(CN(Cc2ccccc2)C(=O)c2ccco2)cc1COc1ccc(NC(C)=O)cc1 3.98 µM [activator, full curve, poor fit], COc1ccc(-c2nc3ccc(NC(=O)COC(C)=O)cc3c(=O)n2Cc2ccccc2)cc1COc1ccc(NC(C)=O)cc1 5.62 µM [activator, full curve, poor fit], COc1ccc(CN(Cc2ccccc2)C(=O)Nc2ccccc2)cc1COc1ccc(NC(C)=O)cc1 5.62 µM [activator, full curve, poor fit], COc1ccc(C(=O)N(Cc2ccccc2)Cc2ccccc2)c(O)c1 5.01 µM [activator, full curve, poor fit], COc1ccc(C2Nc3ccc(NC(C)=O)cc3C(=O)N2Cc2cccc(Cl)c2)cc1COc1ccc(NC(C)=O)cc1 (stereo not given) 3.98 µM [activator, full curve, poor fit], COc1ccc(C2Nc3ccccc3C(=O)N2Cc2ccccc2)cc1Oc1ccc(NC(C)=O)cc1 (stereo not given) 8.91 µM [activator, partial curve, poor fit], COc1ccc(C2Oc3ccccc3C(=O)N2Cc2ccccc2)cc1COc1ccc(NC(C)=O)cc1 (stereo not given) 1.78 µM [activator, full curve], COc1ccc(C(=O)N(Cc2ccco2)Cc2cccs2)c(O)c1 2.82 µM [activator, full curve, poor fit], COc1ccc(C2Nc3ccccc3C(=O)N2Cc2ccc(CNC(=O)CO)cc2)cc1COc1ccc(NC(C)=O)cc1 (stereo not given) 12.6 µM [activator, partial curve, poor fit], COc1ccc(C2Nc3ccc(NC(=O)CO)cc3C(=O)N2Cc2cccc(Cl)c2)cc1COc1ccc(NC(C)=O)cc1 (stereo not given) 5.62 µM [activator, full curve, poor fit], O=C(c1ccccc1O)N(Cc1cccs1)Cc1cccs1 2.24 µM [activator, full curve, poor fit], COc1ccc(-c2nc3ccc(NC(C)=O)cc3c(=O)n2Cc2cccc(Cl)c2)cc1COc1ccc(NC(C)=O)cc1 3.16 µM [activator, full curve, poor fit], COc1ccc(C2Nc3ccccc3C(=O)N2Cc2ccncc2)cc1COc1ccc(NC(C)=O)cc1 (stereo not given) 31.6 µM [activator, partial curve, poor fit], COc1ccc(CN(Cc2ccccc2)C(=O)c2cccc(C#N)c2)cc1COc1ccc(NC(C)=O)cc1 5.01 µM [activator, partial curve, poor fit], COc1ccc(C2Nc3ccc(Cl)cc3C(=O)N2Cc2ccccc2)cc1COc1ccc(NC(C)=O)cc1 (stereo not given) 3.55 µM [activator, full curve, poor fit]

Potency, active:
Cc1cccc(C)c1OCc1cccc(C2Nc3ccccc3C(=O)N2Cc2ccco2)c1 (stereo not given) 32.6 µM, COCCN1C(=O)c2ccccc2NC1c1ccc(OC)c(COc2c(C)cc(NC(C)=O)cc2C)c1 (stereo not given) 46.1 µM

Activity change, negative = inhibition, inactive:
COc1ccc(C2Nc3ccccc3C(=O)N2Cc2ccc(C(F)(F)F)o2)cc1COc1c(C)cccc1C (stereo not given) -13%, COc1ccc(C2Nc3ccccc3C(=O)N2Cc2cccs2)cc1COc1c(C)cc(NC(C)=O)cc1C (stereo not given) -13.2%, COc1ccc(C2Nc3ccccc3C(=O)N2Cc2ccccc2)cc1COc1ccc(Cl)cc1 (stereo not given) 0.804%, COc1ccc(CN(Cc2ccccc2)C(=O)c2ccc(NC(C)=O)cc2)cc1COc1ccc(NC(C)=O)cc1 6.21%, COc1ccc(C2Nc3ccccc3C(=O)N2Cc2ccccc2)cc1COc1cccc(C)c1 (stereo not given) 0.0298%, COc1ccc(C2Nc3ccccc3C(=O)N2Cc2ccccn2)cc1COc1c(C)cccc1C (stereo not given) -8.52%, COc1ccc(C2Nc3ccccc3C(=O)N2Cc2ccncc2)cc1COc1c(C)cc(NC(C)=O)cc1C (stereo not given) -2.14%, COc1ccc(C2Nc3ccccc3C(=O)N2CCO)cc1COc1ccc(NC(C)=O)cc1 (stereo not given) 6.37%, COc1cc(C2Nc3ccccc3C(=O)N2Cc2ccccc2)ccc1OCc1ccc(NC(C)=O)cc1 (stereo not given) 0.705%, COc1ccc(CN(Cc2ccccc2)S(=O)(=O)c2ccccc2)cc1COc1ccc(NC(C)=O)cc1 1.9%, O=C1c2ccccc2NC(c2ccccc2O)N1Cc1ccccc1 (stereo not given) 2.98%, COc1ccc(C2Nc3ccccc3C(=O)N2Cc2cccc(OC)c2OC)cc1COc1c(C)cc(NC(C)=O)cc1C (stereo not given) -4.15%, COc1ccc(C2Nc3cccc(OC)c3C(=O)N2Cc2ccco2)cc1COc1c(C)cc(NC(C)=O)cc1C (stereo not given) -4.71%, COc1ccc(C2Nc3ccccc3C(=O)N2Cc2ccco2)cc1COc1ccccc1 (stereo not given) -5.86%, COc1ccc(C2Nc3ccccc3C(=O)N2CCCN(C)C)cc1COc1c(C)cc(NC(C)=O)cc1C (stereo not given) -1.88%
